Reference: paper PMC3141008
These are yes or no findings as the source states them, for the method shown. In cells and extracts the contact can be indirect. Here binding means that the protein was enriched with, or labelled near, the bait; the list need not be complete.

Sequences of proteins named here, by UniProt entry; tags and fusion partners are left off.
UniProt Q9LQ02: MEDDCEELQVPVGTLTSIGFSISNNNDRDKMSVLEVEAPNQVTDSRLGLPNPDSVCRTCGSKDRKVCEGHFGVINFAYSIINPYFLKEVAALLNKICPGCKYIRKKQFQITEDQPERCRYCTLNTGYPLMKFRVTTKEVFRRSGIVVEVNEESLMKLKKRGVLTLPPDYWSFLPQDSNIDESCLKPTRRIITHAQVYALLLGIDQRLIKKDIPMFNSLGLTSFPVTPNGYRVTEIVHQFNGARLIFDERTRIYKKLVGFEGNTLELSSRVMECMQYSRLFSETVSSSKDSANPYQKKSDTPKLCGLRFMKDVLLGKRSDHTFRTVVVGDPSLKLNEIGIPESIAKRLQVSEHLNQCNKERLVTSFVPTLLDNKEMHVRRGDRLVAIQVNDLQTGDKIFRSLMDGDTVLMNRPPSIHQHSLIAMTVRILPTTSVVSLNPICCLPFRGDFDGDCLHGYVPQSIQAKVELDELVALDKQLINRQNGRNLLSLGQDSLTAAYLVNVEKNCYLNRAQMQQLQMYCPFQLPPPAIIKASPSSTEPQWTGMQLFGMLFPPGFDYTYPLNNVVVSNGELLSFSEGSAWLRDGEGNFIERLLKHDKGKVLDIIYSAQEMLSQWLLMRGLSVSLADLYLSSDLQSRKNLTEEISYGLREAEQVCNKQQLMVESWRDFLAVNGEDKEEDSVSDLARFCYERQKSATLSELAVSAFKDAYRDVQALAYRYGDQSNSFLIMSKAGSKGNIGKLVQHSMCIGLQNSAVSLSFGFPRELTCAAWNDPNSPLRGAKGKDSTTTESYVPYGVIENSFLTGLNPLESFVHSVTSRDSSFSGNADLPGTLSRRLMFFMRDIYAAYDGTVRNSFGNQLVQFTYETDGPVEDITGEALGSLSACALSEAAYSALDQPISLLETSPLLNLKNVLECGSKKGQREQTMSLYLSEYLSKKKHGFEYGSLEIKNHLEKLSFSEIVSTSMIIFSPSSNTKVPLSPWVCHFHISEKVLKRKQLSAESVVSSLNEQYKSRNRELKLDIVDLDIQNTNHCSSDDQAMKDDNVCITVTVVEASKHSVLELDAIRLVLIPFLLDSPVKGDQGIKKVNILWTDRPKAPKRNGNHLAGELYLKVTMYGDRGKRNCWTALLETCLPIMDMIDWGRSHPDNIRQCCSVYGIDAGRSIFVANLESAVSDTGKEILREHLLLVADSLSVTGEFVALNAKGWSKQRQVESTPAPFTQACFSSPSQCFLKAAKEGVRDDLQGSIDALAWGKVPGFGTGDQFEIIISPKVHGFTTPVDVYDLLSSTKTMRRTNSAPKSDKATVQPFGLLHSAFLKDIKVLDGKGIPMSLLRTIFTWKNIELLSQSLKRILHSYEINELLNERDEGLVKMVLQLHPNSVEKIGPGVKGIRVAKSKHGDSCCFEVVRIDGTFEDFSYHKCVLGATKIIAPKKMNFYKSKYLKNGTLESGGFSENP

Molecular target: NUCLEAR RNA POLYMERASE D1 (NRPD1), carboxy-terminal 3×Flag tagged (Arabidopsis thaliana) (UniProt Q9LQ02)
Experiment: affinity purification with mass spectrometry; ~10 g flower tissue of NRPD1-3×Flag and NRPD1-3×Flag-BLRP T4 plants (Col as negative control); lysis buffer 50 mM Tris pH7.6, 150 mM NaCl, 5 mM MgCl2, 10% glycerol, 0.1% NP-40; Dynabeads conjugated with a Flag antibody, 4°C 2.5 hours; eluted with 3×Flag peptide

Row | binding | Binder
1 | binds | NRPB9B/D9B/E9B (protein, UniProt Q8L5V0 1-114) MSTMKFCRECNNILYPKEDKEQSILLYACRNCDHQEAADNNCVYRNEVHHSVSEQTQILSDVASDPTLPRTKAVRCAKCQHGEAVFFQATARGEEGMTLFFVCCNPNCSHRWRE
2 | binds | CHR40 (protein, UniProt Q9LK10 1-1132) MDMTSCVARRTRSRTESYLNSILNKSKGISGEEEDQSLGCVNSRTEKRRVNMRDACSPSPRKKKRRRRKDDDDDVVFVRTEYPEGKRDDENVGSTSGNLQSKSFDFGDRVCDFDADDRNLGCEEKASNFNPIDDDDDVVFVGTVQRENDHVEDDDNVGSASVISPRVCDFDEDDAKVSGKENPLSPDDDDDVVFLGTIAGENQHVEDVNAGSEVCDILLDDANLRGEEKTYVSDEVVSLSSSSDDEEDPLEELGTDSREEVSGEDRDSGESDMDEDANDSDSSDYVGESSDSSDVESSDSDFVCSEDEEGGTRDDATCEKNPSEKVYHHKKSRTFRRKHNFDVINLLAKSMLESKDVFKEDIFSWDKIAEVDSREDPVVRESSSEKVNEHGKPRERRSFHRVREKNHLNGESFYGGEKLCDGEETINYSTEDSPPLNLRFGCEEPVLIEKTEEEKELDSLWEDMNVALTLEGMHSSTPDKNGDMLCSKGTHDFVLDDEIGLKCVHCAYVAVEIKDISPAMDKYRPSVNDNKKCSDRKGDPLPNRLEFDASDPSSFVAPLDNIEGTVWQYVPGIKDTLYPHQQEGFEFIWKNLAGTTKINELNSVGVKGSGGCIISHKAGTGKTRLTVVFLQSYLKRFPNSHPMVIAPATLMRTWEDEVRKWNVNIPFYNMNSLQLSGYEDAEAVSRLEGNRHHNSIRMVKLVSWWKQKSILGISYPLYEKLAANKNTEGMQVFRRMLVELPGLLVLDEGHTPRNQSSLIWKVLTEVRTEKRIFLSGTLFQNNFKELSNVLCLARPADKDTISSRIHELSKCSQEGEHGRVNEENRIVDLKAMIAHFVHVHEGTILQESLPGLRDCVVVLNPPFQQKKILDRIDTSQNTFEFEHKLSAVSVHPSLYLCCNPTKKEDLVIGPATLGTLKRLRLKYEEGVKTKFLIDFIRISGTVKEKVLVYSQYIDTLKLIMEQLIAECDWTEGEQILLMHGKVEQRDRQHMIDNFNKPDSGSKVLLASTKACSEGISLVGASRVVILDVVWNPSVESQAISRAFRIGQKRAVFIYHLMVKDTSEWNKYCKQSEKHRISELVFSSTNEKDKPINNEVVSKDRILDEMVRHEKLKHIFEKILYHPKKSDMNTSFF
3 | binds | CLSY2 (protein, UniProt F4K493 1-1261) MKKRGFYNLKHPFDPCPFEFFCSGTWKPVEYMRIEDGMMTIRLLENGYVLEDIRPFQRLRLRSRKAALSDCICFLRPDIDVCVLYRIHEDDLEPVWVDARIVSIERKPHESECSCKINVRIYIDQGCIGSEKQRINRDSVVIGLNQISILQKFYKEQSTDQFYRWRFSEDCTSLMKTRLSLGKFLPDLSWLTVTSTLKSIVFQIRTVQTKMVYQIVTDEEGSSSTLSSMNITLEDGVSLSKVVKFNPADILDDSQDLEIKQETDYYQEEDEVVELRRSKRRNVRPDIYTGCDYEPDTIDGWVRMMPYQFGKCAVNVESDEDEDDNNEDGDTNDDLYIPLSRLFIKKKKTNSREAKPKSRKGEIVVIDKRRVHGFGRKERKSELSVIPFTPVFEPIPLEQFGLNANSFGGGGSFSRSQYFDETEKYRSKGMKYGKKMTEMEEMMEADLCWKGPNQVKSFQKRTSRSSRSVAPKTEDSDEPRVYKKVTLSAGAYNKLIDTYMNNIESTIAAKDEPTSVVDQWEELKKTNFAFKLHGDMEKNLSEDGEGETSENEMLWREMELCLASSYILDDNEVRVDNEAFEKARSGCEHDYRLEEEIGMCCRLCGHVGSEIKDVSAPFAEHKKWTIETKHIEEDDIKTKLSHKEAQTKDFSMISDSSEMLAAEESDNVWALIPKLKRKLHVHQRRAFEFLWRNVAGSVEPSLMDPTSGNIGGCVISHSPGAGKTFLIIAFLTSYLKLFPGKRPLVLAPKTTLYTWYKEFIKWEIPVPVHLIHGRRTYCTFKQNKTVQFNGVPKPSRDVMHVLDCLEKIQKWHAHPSVLVMGYTSFTTLMREDSKFAHRKYMAKVLRESPGLLVLDEGHNPRSTKSRLRKALMKVGTDLRILLSGTLFQNNFCEYFNTLCLARPKFIHEVLMELDQKFKTNHGVNKAPHLLENRARKLFLDIIAKKIDASVGDERLQGLNMLKNMTNGFIDNYEGSGSGSGDALPGLQIYTLVMNSTDIQHKILTKLQDVIKTYFGYPLEVELQITLAAIHPWLVTSSNCCTKFFNPQELSEIGKLKHDAKKGSKVMFVLNLIFRVVKREKILIFCHNIAPIRMFTELFENIFRWQRGREILTLTGDLELFERGRVIDKFEEPGNPSRVLLASITACAEGISLTAASRVIMLDSEWNPSKTKQAIARAFRPGQQKVVYVYQLLSRGTLEEDKYRRTTWKEWVSCMIFSEEFVADPSLWQAEKIEDDILREIVGEDKVKSFHMIMKNEKASTG

The next lines start with the binder.

Row | Binder | binding
4 | CLASSY 1 (CLSY1), endogenous (protein, UniProt Q9M297 1-1256) MKRKHYFEFNHPFNPCPFEVFCWGTWKAVEYLRIENGTMTMRLLENGQVLDDIKPFQRLRIRSRKATLIDCTSFLRPGIDVCVLYQRDEETPEPVWVDARVLSIERKPHESECLCTFHVSVYIDQGCIGLEKHRMNKVPVLVGLNEIAILQKFCKEQSLDRYYRWRYSEDCSSLVKTRLNLGKFLPDLTWLLVTSVLKNIVFQIRTVHEKMVYQIVTDEDCEGSSSSLSAMNITVEDGVVMSKVVLFNPAEDTCQDSDVKEEIEEEVMELRRSKRRSGRPERYGDSEIQPDSKDGWVRMMPYRYNIWNVSSDDDDEEEDCEDDKDTDDDLYLPLSHLLRKKGSKKGFSKDKQREIVLVDKTERKKRKKTEGFSRSCELSVIPFTPVFEPIPLEQFGLNANSLCGGVSGNLMDEIDKYRSKAAKYGKKKKKKIEMEEMESDLGWNGPIGNVVHKRNGPHSRIRSVSRETGVSEEPQIYKKRTLSAGAYNKLIDSYMSRIDSTIAAKDKATNVVEQWQGLKNPASFSIEAEERLSEEEEDDGETSENEILWREMELCLASSYILDDHEVRVDNEAFHKATCDCEHDYELNEEIGMCCRLCGHVGTEIKHVSAPFARHKKWTTETKQINEDDINTTIVNQDGVESHTFTIPVASSDMPSAEESDNVWSLIPQLKRKLHLHQKKAFEFLWKNLAGSVVPAMMDPSSDKIGGCVVSHTPGAGKTFLIIAFLASYLKIFPGKRPLVLAPKTTLYTWYKEFIKWEIPVPVHLLHGRRTYCMSKEKTIQFEGIPKPSQDVMHVLDCLDKIQKWHAQPSVLVMGYTSFLTLMREDSKFAHRKYMAKVLRESPGLLVLDEGHNPRSTKSRLRKALMKVDTDLRILLSGTLFQNNFCEYFNTLCLARPKFVHEVLVELDKKFQTNQAEQKAPHLLENRARKFFLDIIAKKIDTKVGDERLQGLNMLRNMTSGFIDNYEGSGSGSGDVLPGLQIYTLLMNSTDVQHKSLTKLQNIMSTYHGYPLELELLITLAAIHPWLVKTTTCCAKFFNPQELLEIEKLKHDAKKGSKVMFVLNLVFRVVKREKILIFCHNIAPIRLFLELFENVFRWKRGRELLTLTGDLELFERGRVIDKFEEPGGQSRVLLASITACAEGISLTAASRVIMLDSEWNPSKTKQAIARAFRPGQQKVVYVYQLLSRGTLEEDKYRRTTWKEWVSSMIFSEEFVEDPSQWQAEKIEDDVLREIVEEDKVKSFHMIMKNEKASTGG | binds
5 | NRPB9A/E9A (protein, UniProt Q6NLH0 1-114) MSTMKFCRECNNILYPKEDKEQKILLYACRNCDHQEVADNSCVYRNEVHHSVSERTQILTDVASDPTLPRTKAVRCSKCQHREAVFFQATARGEEGMTLFFVCCNPNCGHRWRE | binds
6 | RNA-DIRECTED DNA …ON 4 (RDM4)/… IN MERISTEM … 4 (DMS4) (protein, UniProt Q8GYP3 1-346) MDGVGESSTQNEVEEKPVIVRVKRKVGQSLLDAFWLEINERPLKRPTLDFSKLSISDSGERGPSVAEDVKPKKVLVRHLETVTDSETTADIIHSFFESDHNEKSCSKGKFEERKIAFKKDNRKEQRLTKSVQKQQIASENARFEQIWRSRKGNKEGIHEKCHFFDVIRVDTEERRDNAQEFTSLEDQKMLASFLPLLRECIPTAAEEIEADIQSSHTEEYVYDYYAVNEEMDISEDSSKNQFPLVIVEDEEEFCDGSDESDYDSEDSNAEDHPKTDYPEEEEEEEEEDDDDDDDDESEEEKSEASDESDDEETSKRHVRSVLGDDEFDDYAEDVYGYSESDEEFES | binds
7 | CHROMATIN REMODELING 31 (CHR31) (protein, UniProt F4I8S3 1-1410) MECIGKRVKSRSWQRLQAVNKRKKMETVAPVTSPPKKRRQKKPKNYDSDIEDITPTCNDSVPPPQVSNMYSVPNNSVKESFSRIMRDLNVEKKSGPSSSRLTDGSEQNPCLKERSFRVSDLGVEKKCSPEITDLDVGIPVPRFSKLKDVSEQKNTCLMQKSSPEIADLDLVISVPSSSVLKDVSEEIRFLKDKCSPEIRGLVLEKSVPGEIEILSDSESETEARRRASAKKKLFEESSRIVESISDGEDSSSETDEEEEENQDSEDNNTKDNVTVESLSSEDPSSSSSSSSSSSSSSSSSSSDDESYVKEVVGDNRDDDDLRKASSPIKRVSLVERKALVRYKRSGSSLTKPRERDNKIQKLNHREEEKKERQREVVRVVTKQPSNVVYTCAHCGKENTGNPESHSSFIRPHSIRDEIEDVNNFASTNVSKYEDSVSINSGKTTGAPSRPEVENPETGKELNTPEKPSISRPEIFTTEKAIDVQVPEEPSRPEIYSSEKAKEVQAPEMPSRPEVFSSEKAKEIQVPEMPSIPEIQNSEKAKEVQANNRMGLTTPAVAEGLNKSVVTNEHIEDDSDSSISSGDGYESDPTLKDKEVKINNHSDWRILNGNNKEVDLFRLLVNSVWEKGQLGEEDEADELVSSAEDQSQEQAREDHRKYDDAGLLIIRPPPLIEKFGVEEPQSPPVVSEIDSEEDRLWEELAFFTKSNDIGGNELFSNVEKNISANETPAAQCKKGKHDLCIDLEVGLKCMHCGFVEREIRSMDVSEWGEKTTRERRKFDRFEEEEGSSFIGKLGFDAPNNSLNEGCVSSEGTVWDKIPGVKSQMYPHQQEGFEFIWKNLAGTIMLNELKDFENSDETGGCIMSHAPGTGKTRLTIIFLQAYLQCFPDCKPVIIAPASLLLTWAEEFKKWNISIPFHNLSSLDFTGKENSAALGLLMQKNATARSNNEIRMVKIYSWIKSKSILGISYNLYEKLAGVKDEDKKTKMVREVKPDKELDDIREILMGRPGLLVLDEAHTPRNQRSCIWKTLSKVETQKRILLSGTPFQNNFLELCNVLGLARPKYLERLTSTLKKSGMTVTKRGKKNLGNEINNRGIEELKAVMLPFVHVHKGSILQSSLPGLRECVVVLNPPELQRRVLESIEVTHNRKTKNVFETEHKLSLVSVHPSLVSRCKISEKERLSIDEALLAQLKKVRLDPNQSVKTRFLMEFVELCEVIKEKVLVFSQYIDPLKLIMKHLVSRFKWNPGEEVLYMHGKLEQKQRQTLINEFNDPKSKAKVFLASTKACSEGISLVGASRVILLDVVWNPAVERQAISRAYRIGQKRIVYTYHLVAKGTPEGPKYCKQAQKDRISELVFACSSRHDKGKEKIAEAVTEDKVLDTMVEHSKLGDMFDNLIVQPKEADLVEGFSILMP | binds
8 | NRPB11/D11/E11 (protein, UniProt Q38859 1-116) MNAPERYERFVVPEGTKKVSYDRDTKIINAASFTVEREDHTIGNIVRMQLHRDENVLFAGYQLPHPLKYKIIVRIHTTSQSSPMQAYNQAINDLDKELDYLKNQFEAEVAKFSNQF | binds
